In PubChem BioAssay AID504444 (National Center for Advancing Translational Sciences (NCATS), 2011):
Screen size: about 360,000 compounds; about 7,500 (2.1%) were called active. Inconclusive results, whose numbers are uncertain, are shown with a selection of clear calls. Calls come from the whole dose curve; as a rule, active = well fitted inhibition curve with a large enough effect; inconclusive = small, poorly fitted or top-dose-only effect, or effect the other way; inactive = flat fitted curve, though single readings scatter. A potency beside an inconclusive call is a rough fit, not a confirmed value.

Experiment: Nrf2 qHTS screen for inhibitors; note: nearly all actives have a fitted effect of over 60% in size
Settings: A549 ARE-Fluc reporter, luciferase luminescence, 18-24 h; series mostly up to 46 µM
In short: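 Nrf2 function is reported as luminescence of an ARE-controlled luciferase in A549 cells. Compounds were tested at several concentrations, and a CellTiter-Fluor read on the same wells flagged cytotoxicity.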
Potency is the fitted concentration of half-maximal effect.

Structure (SMILES)	Potency
CCOc1ccc(-n2nc3ccc(NC(=O)Cc4ccccc4)cc3n2)cc1	inactive
CCc1ccc(-c2csc(NC(=O)C3=NN(c4ccccc4)C(=O)CC3)n2)cc1	active: 18.4 µM
CC(=O)c1ccc(NC(=O)c2cc(C)no2)cc1	inconclusive: 5.8 µM [activator, full curve, poor fit]
Cc1cc(C)nc(SCc2nnc(SCC(=O)Nc3nc(-c4ccccc4)cs3)n2-c2ccccc2)n1	inconclusive: 5.17 µM [falling, full curve, poor fit]
CCc1cccc(NC(=O)CN(C)S(=O)(=O)c2ccc3[nH]c4c(c3c2)CCCC4)c1	inconclusive: 29.1 µM [falling, single point]
COc1ccc(-c2csc(NC(=O)C3=NN(c4ccccc4)C(=O)CC3)n2)cc1	active: 20.6 µM
N#Cc1c(/N=C/c2cccs2)sc2c1CCCCC2	inconclusive: 1.64 µM [activator, partial curve]
Cc1ccc(-c2csc(NC(=O)c3ccno3)n2)cc1	inconclusive: 3.26 µM [activator, partial curve, poor fit]
COc1ccc(N2CCC(CNC(=S)Nc3c(C)cccc3C)C2)cc1 (stereo unspecified)	inconclusive: 1.3 µM [falling, full curve, poor fit]
c1ccc(-c2nc(-c3ccco3)cs2)nc1	inconclusive: 16.4 µM [activator, partial curve]
Cc1nn(Cc2ccccc2)c(C)c1NC(=O)CCC(=O)O	inconclusive: 3.26 µM [activator, single point]
Cc1ccccc1CS(=O)(=O)c1ccc(C(=O)N2CCC(C)CC2)cc1[N+](=O)[O-]	inactive
COC(=O)CCn1nnc(-c2ccc(C(C)C)cc2)n1	active: 0.517 µM
CCn1c(COc2ccccc2)nnc1SCC(=O)CC(=O)Nc1ccccc1OC	inconclusive: 13 µM [falling, single point]
N#C/C(=N\Nc1ccccc1)C(=N)N1CCOCC1	inconclusive: 8.2 µM [activator, partial curve]
Cc1ccc(NC(=O)CCN2CCN(C/C=C/c3ccccc3)CC2)cc1C	inactive
O=C(Nc1ccc(OC(F)(F)F)cc1)c1noc2c1CCCC2	inconclusive: 4.61 µM [activator, full curve]
Cc1cccc(-n2ncc3c(Nc4ccc(F)cc4)ncnc32)c1	inconclusive: 13 µM [activator, partial curve, poor fit]
CCn1ccc(C(=O)Nc2ccc3c(c2)CCC3)n1	inconclusive: 0.651 µM [activator, full curve]
CCOc1ccccc1C(=O)NC(C(=O)NCc1ccccc1OC)C(C)C (stereo unspecified)	inconclusive: 6.51 µM [falling, single point]
CCN1CCN(CCCN(Cc2ccco2)C(=S)Nc2ccc(Cl)c(C)c2)CC1	inactive
COC(=O)N1C(=O)[C@@](c2ccc(OC)cc2)(C(C)C)N1C(=O)OC	inconclusive: 23.1 µM [falling, partial curve, poor fit]

Structure (SMILES)	Potency
COc1cc(NC(=O)c2cc(-c3cccc(OC)c3)n[nH]2)cc(OC)c1	inconclusive: 29.1 µM [activator, single point]
COC(=O)c1ccc(NC(=O)CC2C(=O)N(c3cccc(OC)c3)C(=O)N2C(C)C)cc1 (stereo unspecified)	inactive
S=C(NC1CCCC1)N1CCN(c2ccccn2)CC1	inactive
Cc1nn(-c2ccccc2)c(N2CCCC2)c1/C=N/Nc1ccc(S(=O)(=O)Nc2ccccc2)cc1[N+](=O)[O-]	active: 8.2 µM
COC(=O)Cn1c(CN2CCN(c3ccccc3F)CC2)nc2c1c(=O)n(C)c(=O)n2C	inconclusive: 29.1 µM [falling, single point]
Cc1nc2ccccc2n1CC(=O)c1ccccc1	inconclusive: 0.82 µM [falling, partial curve, poor fit]
COc1cc(NC(=O)c2nnn(CC(=O)Nc3cc(C)ccc3C)c2N)cc(OC)c1	inconclusive: 29.1 µM [falling, single point]
CC(C)Cc1ccc(S(=O)(=O)NCC2CCCO2)cc1 (stereo unspecified)	inconclusive: 0.116 µM [falling, full curve, poor fit]
C=CCNC(=S)N/N=C/c1ccc(-c2ccc(OC)cc2)o1	inconclusive: 16.4 µM [falling, single point]
Cc1cccc(N=NC(=S)NNc2cccc(C)c2)c1	inconclusive: 29.1 µM [activator, single point]
O=C(NC1CCC(O)CC1)c1ccc(-c2ccc([N+](=O)[O-])cc2)o1 (stereo unspecified)	inconclusive: 23.1 µM [falling, partial curve, poor fit]
O=c1c(/C=N/Nc2ccccc2)c(Sc2nnnn2-c2ccccc2)nc2ccccn12	inactive
CCN(CC)S(=O)(=O)c1ccc(NC(=O)c2cccnc2Cl)c(NC(=O)c2cccnc2Cl)c1	active: 20.6 µM
CN1C(=O)/C(=C\C=C2/CCCN2C)N(C)C1=S	inconclusive: 23.1 µM [activator, single point]
C/C(=N\O)C(=O)C(CN1CCCCC1)CN1CCCCC1	inactive
CCCCC1(Cc2cccc([N+](=O)[O-])c2)C(=O)N(c2ccccc2)N(c2ccccc2)C1=O	inconclusive: 16.4 µM [falling, partial curve]
CC(Oc1ccc(Cl)cc1Cl)c1ccnc2nc(N3CCOCC3)nn12 (stereo unspecified)	inconclusive: 29.1 µM [falling, single point]
Cc1ccc([N+](=O)[O-])cc1S(=O)(=O)Nc1ccc(C(=O)N2CCN(C(=O)c3ccco3)CC2)cc1	inconclusive: 32.6 µM [falling, partial curve, poor fit]
COc1ccc(-n2c(=S)[nH]c3cc(C(=O)Nc4ccccc4OC)ccc3c2=O)c(OC)c1	inconclusive: 11.6 µM [falling, partial curve, poor fit]
CC1CCCN(C(=O)Cn2ncc3c([nH]c4ccccc43)c2=O)C1 (stereo unspecified)	inactive
CCN(C(=O)CSc1cc(C)c2ccc(OC)cc2n1)C1CCS(=O)(=O)C1 (stereo unspecified)	inactive
COc1ccc(-n2c(=S)[nH]c3cc(C(=O)NC4CCCCC4)ccc3c2=O)c(OC)c1	active: 14.6 µM

Some of the entries above in a different format.
Structure (SMILES) | Potency
CCOc1ccc(-n2nc3ccc(NC(=O)Cc4ccccc4)cc3n2)cc1 | inactive
CC(=O)c1ccc(NC(=O)c2cc(C)no2)cc1 | inconclusive: 5.8 µM [activator, full curve, poor fit]
Cc1ccccc1CS(=O)(=O)c1ccc(C(=O)N2CCC(C)CC2)cc1[N+](=O)[O-] | inactive
CCn1c(COc2ccccc2)nnc1SCC(=O)CC(=O)Nc1ccccc1OC | inconclusive: 13 µM [falling, single point]
O=C(Nc1ccc(OC(F)(F)F)cc1)c1noc2c1CCCC2 | inconclusive: 4.61 µM [activator, full curve]
Cc1cccc(-n2ncc3c(Nc4ccc(F)cc4)ncnc32)c1 | inconclusive: 13 µM [activator, partial curve, poor fit]
COc1cc(NC(=O)c2cc(-c3cccc(OC)c3)n[nH]2)cc(OC)c1 | inconclusive: 29.1 µM [activator, single point]
S=C(NC1CCCC1)N1CCN(c2ccccn2)CC1 | inactive
COC(=O)Cn1c(CN2CCN(c3ccccc3F)CC2)nc2c1c(=O)n(C)c(=O)n2C | inconclusive: 29.1 µM [falling, single point]
Cc1nc2ccccc2n1CC(=O)c1ccccc1 | inconclusive: 0.82 µM [falling, partial curve, poor fit]
Cc1cccc(N=NC(=S)NNc2cccc(C)c2)c1 | inconclusive: 29.1 µM [activator, single point]
O=c1c(/C=N/Nc2ccccc2)c(Sc2nnnn2-c2ccccc2)nc2ccccn12 | inactive

Later entries

Structure (SMILES)	Potency
COc1ccc(CNc2nc3ccccc3n2C)c(OC)c1	inconclusive: 5.17 µM [activator, partial curve]
COc1ccccc1NC(=O)CC1C(=O)NCCN1C(=O)Nc1ccc(Cl)c(Cl)c1 (stereo unspecified)	inconclusive: 29.1 µM [falling, single point]
O=C1C(Cl)=C(N2CCOCC2)C(=O)N1CCc1ccccc1	inconclusive: 3.26 µM [activator, full curve]
CCOC(=O)c1c(C)oc2ncnc(Nc3cc(C)cc(C)c3)c12	inconclusive: 9.2 µM [activator, partial curve]
CCN1CCC(O)(/C=C/c2ccc(C)cc2)C(C(=O)/C=C/c2ccc(C)cc2)C1 (stereo unspecified)	inactive
CN(C(=S)Oc1ccc(C(=O)Nc2ccccc2)cc1)c1ccccc1	inconclusive: 29.1 µM [falling, single point]
O=S(=O)(Nc1cc(Sc2cccc3cccnc23)c(O)c2ccccc12)c1ccc(F)cc1	inconclusive: 23.1 µM [falling, partial curve]
C/C(=N/NC(=O)c1ccncc1)c1ccc(NC(=O)c2ccccc2)cc1	inconclusive: 25.9 µM [activator, partial curve, poor fit]
CCC1=C(c2ccc(C)cc2)S(=O)(=O)N=C1N1CCC(C(=O)NCc2ccc(N(C)C)cc2)CC1	inconclusive: 18.4 µM [falling, partial curve, poor fit]
O=C(c1cc(COc2ccc(F)cc2Cl)on1)N1CC2C[C@@H]3CC1C[C@H](C2)C3	inconclusive: 0.259 µM [activator, full curve, poor fit]
CCNc1nc(-c2cc3ccccc3o2)cs1	inconclusive: 3.66 µM [activator, full curve]
CC1CCCN(C(=O)CCc2nnc(-c3ccc4c(c3)OCO4)o2)C1 (stereo unspecified)	inactive
O=C(CN1CCC(NC(=O)c2ccc(F)cc2)CC1)NCc1ccccc1F	inconclusive: 8.2 µM [falling, partial curve, poor fit]
CCOc1ccc(OCc2cccc(C(=O)N3CCCCCC3)c2)cc1	inconclusive: 0.0651 µM [activator, full curve]
COc1ccc(N(C(=O)c2ccc(C(C)(C)C)cc2)S(=O)(=O)c2ccc(Cl)cc2)cc1	inconclusive: 29.1 µM [falling, single point]
CCCCOc1ccc(Br)cc1/C(C)=N/NC1=NCCN1	inconclusive: 18.4 µM [falling, partial curve]
O=C(Nc1ccc(Cl)cc1)c1cc2c(cc1O)[nH]c1ccccc12	inconclusive: 29.1 µM [falling, single point]
CCS(=O)(=O)Nc1cccc(-c2ccc3nnc(-c4cccnc4)n3n2)c1	inconclusive: 13 µM [falling, partial curve, poor fit]
Cn1cc([C@@H]2C[C@H]3CN(Cc4cccc(Cl)c4)C(=O)[C@]34CCCN24)c(-c2ccccc2)n1	active: 20.6 µM
O=C(NC1=NCCS1)c1ccc(Cl)c(Cl)c1	inconclusive: 1.3 µM [activator, full curve]
CCOC(=O)c1c(C)[nH]c(C)c1S(=O)(=O)N1CCC(C(=O)NCc2cccc(OC)c2)CC1	inconclusive: 29.1 µM [activator, single point]
CN(C)CCCNC(=S)Nc1ccc(Br)cc1	inconclusive: 25.9 µM [activator, single point]
